Percent effect of library compounds

By UniProt entry, the sequences of proteins in these tests, tags left out. Residues count along the entry.
UniProt Q8IDJ8, 1-583: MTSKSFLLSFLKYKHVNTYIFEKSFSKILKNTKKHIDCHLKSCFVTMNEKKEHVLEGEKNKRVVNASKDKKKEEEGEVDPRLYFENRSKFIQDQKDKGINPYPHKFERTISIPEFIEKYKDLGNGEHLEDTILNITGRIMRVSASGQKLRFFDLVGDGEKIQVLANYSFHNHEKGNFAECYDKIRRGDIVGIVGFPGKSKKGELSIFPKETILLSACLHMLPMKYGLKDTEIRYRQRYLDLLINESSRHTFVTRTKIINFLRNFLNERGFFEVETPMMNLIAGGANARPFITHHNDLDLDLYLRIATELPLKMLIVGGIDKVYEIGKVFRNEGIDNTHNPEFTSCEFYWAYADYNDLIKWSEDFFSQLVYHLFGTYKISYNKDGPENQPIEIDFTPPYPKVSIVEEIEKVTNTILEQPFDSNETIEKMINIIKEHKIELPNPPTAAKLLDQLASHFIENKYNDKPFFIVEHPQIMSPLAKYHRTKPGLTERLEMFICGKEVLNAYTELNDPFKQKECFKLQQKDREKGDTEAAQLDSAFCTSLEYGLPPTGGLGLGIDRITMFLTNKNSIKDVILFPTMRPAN

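Lysine-tRNA ligase, Plasmodium falciparum 3D7 (UniProt Q8IDJ8). Enzyme assay of the cytosolic lysyl-tRNA synthetase in 384-well plates, read by luminescence. Tested at 30 µM. Direction is inferred from only a few compounds that gave an IC50; most scored high, so higher reads as stronger inhibition. Size under these conditions: about 69,000 compounds, about 49 of them at 50% or above in at least one test.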

Results are given as percent effect.
The record does not define 0% and 100%; most values in the screen are far below 50% and negative numbers occur (in some assays of this library far below -100).
Compounds were drawn at random from those tested, without regard to their results.

structure,Percent Effect
COCCCN1C(=O)CC[C@H]2CN(c3cc(C(N)=O)ccn3)CC[C@H]21,3.222%
O=C(c1c[nH]nn1)N1CCCC1C1CCCCC1 (centres unmarked),85.62%
COCCO[C@H]1CCN(C(=O)c2cc(C)on2)[C@H]1Cc1ccccc1,3.485%
COCCN1CCOCC12CCN(C(=O)Cc1cccs1)CC2,-2.229%
O=C(O)[C@@H]1CN(C(=O)c2ccc(Cl)cc2)C[C@H]1c1cccc(F)c1,1.526%
Cc1ccc(NC(=O)CNc2cccc(C(N)=O)c2C)c(C)c1,-1.367%
CC(C)c1noc(CN2CCN(C(=O)c3ccc(F)cc3)CC2)n1,7.483%
CCC(=O)Nc1cccc(OCC(=O)N(C)Cc2nccn2CC)c1,-0.2908%
O=C(O)C1CCCN(c2nc3c(-c4ccccc4)csc3c(=O)[nH]2)C1 (centres unmarked),3.656%
Fc1ccc(COCC2CCN(Cc3ccccn3)CC2)cc1,5.774%
COc1ccccc1NC(=O)c1cnc(C2CCN(C(C)=O)C2)nc1C (centres unmarked),2.13%
N#Cc1ccccc1OCCN1CCCC(c2noc(C3CC3)n2)C1 (centres unmarked),6.308%
Cc1cc(C)c(CNC(=O)N2CCOC(c3ccccc3)C2)c(=O)[nH]1 (centres unmarked),-0.04133%
COC(=O)CN(Cc1ccccc1C)C(=O)COCC1CC1,4.192%
CCc1nc(C2CCCN(C(=O)c3ccncc3)C2)no1 (centres unmarked),-0.149%
CN1C(=O)C2(CCNCC2)c2cc(F)ccc21,4.383%
Cc1ncc(CNCC(=O)NCC(F)(F)F)n1-c1ccccc1,-0.4532%
O=C(c1cscn1)N1CCC2(CCN(Cc3nccs3)C2)CC1,4.017%
COc1ccc(C[C@H]2CN(C(=O)c3cc(C)no3)CC[C@H]2OC)cc1,6.645%
CCN(C)S(=O)(=O)NCC(O)c1cc2ccccc2s1 (centres unmarked),2.473%
CC(NC(=O)NC1CCN(Cc2ccccn2)CC1)c1nncn1C (centres unmarked),4.662%
Cc1cc(NC(=O)CNCc2csc(-c3cnccn3)n2)ccc1Cl,2.47%
Cc1ccc2nc(C(=O)N3CC(c4cccnc4)C3)cn2c1,5.641%
CC(C)C(=O)NCCCNC(=O)Nc1cc(-c2ccccc2)ns1,6.302%
CN(C)c1ccc(C(=O)N2CCCC2c2ccc(Cl)cc2)cc1 (centres unmarked),-0.4414%
COc1ccc(CNC[C@H]2COCc3nc4cccnc4n32)cn1,7.092%
O=C(CC(F)(F)F)N1CCc2[nH]nc(-c3ccc4c(c3)OCO4)c2C1,4.305%
CCCc1nc(CN2CCCC2Cn2cncn2)cs1 (centres unmarked),8.426%
CN(c1ccc(C(=O)NCCN2CCOCC2)c(Cl)c1)S(C)(=O)=O,-1.652%
COc1c(C)cnc(CN2CCCCC2CCN2CCOCC2)c1C (centres unmarked),6.13%
O=C(C1CC(=O)N(c2n[nH]c3cc(Br)ccc23)C1)N1CCCC1 (centres unmarked),9.555%
COc1ncc(CN2CCC3(CCCN(CC4CCC4)C3)C2)cn1 (centres unmarked),0.9189%
COc1ccc(-n2ccc(C(=O)NCCN3CCCCCC3)n2)cc1,1.704%
CCN1CCC(N2C[C@H]3OC(=O)N(CCc4cccc(Cl)c4)[C@H]3C2)CC1,1.78%
CC(C)c1nnc2n1CCN(CCC(=O)N1CCc3ccccc31)C2,0.9339%
O=C(COCC(=O)N1CCCCCC1)NCc1cccc(Br)c1,4.372%
Cn1ccnc1C(=O)N1CCC2(CCN2c2ncccn2)C1 (centres unmarked),1.444%
Cn1cc(Br)c(C(=O)NCCCn2cc(Cl)cn2)n1,-3.215%
CCN(C(=O)CCc1ccc2c(c1)OCO2)C1CC(=O)NC1=O (centres unmarked),2.141%
COCCn1cnc2ccc(NC(=O)C3CC3)cc2c1=O,5.185%
Cc1cc(C(=O)N2CCN(c3nc4c(C(C)C)cccc4s3)CC2)on1,1.881%
CN(Cc1cccnc1)CC1CC12CCN(c1nncs1)CC2 (centres unmarked),1.749%
Cc1nc(C(C)C)sc1C(=O)N(C)Cc1nc(-c2ccccn2)no1,3.452%
Cc1cc(-n2c(C)cn(CN(C)Cc3ccccc3)c2=O)no1,5.281%
Cc1cc(F)ccc1C(=O)N1C[C@@H]2COC[C@]2(COCC2CC2)C1,2.606%
CC(C)=CCN1C[C@@H]2CN(C(=O)c3cnccc3C)C[C@]2(C(=O)O)C1,1.844%
CC(C)CN1C[C@H]2CCN(c3ncccn3)CC[C@H]2S1(=O)=O,-2.101%
Cc1csc(N2CCCN(C(=O)c3ccoc3C)CC2)n1,0.3152%
Cc1noc([C@H]2C[C@H]3CN(C(=O)Cc4ccsc4)CC[C@H]3O2)n1,2.391%
Cc1nn(CCO)c(C)c1CNC1CCC(C)(C)c2ccccc21 (centres unmarked),3.56%
Cc1ccc(-c2cc(CN3CCc4cnc(C)nc4C3)on2)cc1,5.987%
c1coc(CN2CCC3(CC2)COCCN(CCN2CCCC2)C3)c1,6.066%
COCC(=O)N(Cc1cccc(C)c1)Cc1ccccc1OC,0.6505%
CC(NC(=O)NCc1cc[nH]n1)c1ccc2c(c1)CCC(=O)N2 (centres unmarked),8.057%
O=c1oc2ccccc2n1CCN(CC1CCOC1)C1CC1 (centres unmarked),4%
CCCOc1cccc(OCc2ccon2)c1,5.043%
CC(C)c1nnsc1CNC(=O)C1CCN(C(=O)C2CCCC2)CC1,0.2733%
CC(=O)Nc1ccc2nc(-c3nccn3C[C@@H]3CCCO3)ccc2c1,0.0243%
Cc1ccc(S(=O)(=O)N2CC(C)Oc3ncccc32)c(C)c1 (centres unmarked),11.03%
CCS(=O)(=O)N1CCC2(CC1)CN(c1ccsc1)C(=O)CO2,1.366%
CCNC(=O)C(C)NC(=O)Nc1ccccc1SC(F)(F)F (centres unmarked),-2.791%
Cc1ccc2nc(C(=O)N3CCNC(=O)C3c3cccc(F)c3)cn2c1 (centres unmarked),-0.7214%
COCCNC(=O)c1ccc(NCc2csc(C)n2)cc1Cl,7.698%
CC(Cn1cccn1)NC(=O)NCCCN1CCc2ccccc21 (centres unmarked),1.437%
Cc1nc(CN2CCC23CCN(C(=O)c2ccncc2)CC3)cs1,0.8065%
CCc1nc(C2CCCN(C(=O)c3ccccc3F)C2)no1 (centres unmarked),0.1714%
CCOC(=O)CC(c1ccc(OC)cc1)c1c(O)n[nH]c1C (centres unmarked),2.127%
Cc1noc(C2CCC3(CCN(C(=O)c4sccc4C)CC3)O2)n1 (centres unmarked),-1.69%
Cc1cc(CN2C[C@H](N3CCOCC3)[C@@H]3OCCC[C@@H]32)oc1C,-1.008%
CC(C)(C)c1nnnn1CC(=O)N(CCC#N)c1ccccc1,4.243%
CCN(C)C(=O)c1cc(-c2ccn(C(C)C)n2)n2ccccc12,16.53%
Cc1cnc(-c2nc(O)c3c(n2)CN(C(=O)C2CCOC2)CC3)cn1 (centres unmarked),1.037%
O=C(N[C@H]1CCCC[C@@H]1O)c1ccc(-c2nc3ccccc3[nH]2)cc1,3.799%
NC(=O)C1CCN(C(=O)NCCNc2ccccn2)CC1,-1.864%
CC(C)O[C@@H]1CC[C@H]2[C@H]1OCCN2C(=O)c1nn(C)c2ccccc12,4.752%
CC(C)Nc1nc2c(c(NC3CC3)n1)CCN(C(=O)C1CCOC1)CC2 (centres unmarked),2.353%
Cc1cc(Oc2ccccc2)nc(C2CCCCN2)n1 (centres unmarked),-1.316%
CCc1nnc(CN(C)C(=O)CN2CC(c3ccccc3)CC2=O)o1 (centres unmarked),4.233%
COC[C@@]12CCO[C@@H]1CCN(Cc1ccc(C)s1)C2,-0.8258%
COc1coc(CN2CCCC(CCc3ccccc3C)C2)cc1=O (centres unmarked),3.926%

The values are deposited in ChEMBL (CHEMBL3988442, “University of Dundee, Small-Polar-MMV Screening Library” (2021)).